Source: the supplement of paper PMC10735217
Counter-ions that a name gives are not always drawn. Some of the results follow. Repeats in this data set agree poorly, so a single value says little.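 In a drug-repurposing library screen, luminescence reads luciferase driven by eight TEAD-binding elements, stably integrated into human kidney-derived cells. Compounds scoring over five robust Z scores above the plate mean are called hits.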

System: HEK293A TEAD-LUC reporter
Test: TEAD-luciferase reporter activity (YAP activation), robust Z score vs plate; higher = stronger YAP/TEAD activation
Details: 24 h

Row | SMILES | TEAD-luciferase reporter activity (compound concentration: 200 nM) | TEAD-luciferase reporter activity (compound concentration: 2 uM) | TEAD-luciferase reporter activity (compound concentration: 10 uM)
1 | C[C@]12CCC(=O)C=C1CC[C@H]1[C@@H]3CC[C@](O)(C(=O)CO)[C@@]3(C)C[C@H](O)[C@@]12F | inactive: -0.522 | inactive: -1.04 | inactive: -0.393
2 | O=C(O)COc1cccc2c1CC[C@@](O)(COC(=O)N(c1ccccc1)c1ccccc1)C2 | inactive: 0.596 | inactive: 0.278 | inactive: 1.72
3 | CSc1nc2cc(Oc3cccc(Cl)c3Cl)c(Cl)cc2[nH]1 [Triclabendazole] | inactive: -2.23 | – | inactive: -0.602
4 | CCC[C@@H](NC(=O)N1C(=O)C(CC)(CC)[C@@H]1Oc1ccc(CC(=O)O)cc1)c1ccc(C)cc1 | inactive: -1.54 | inactive: -1.71 | inactive: -0.293
5 | CNC(=O)N1CC(Oc2cccc(C(F)(F)F)c2)C1 | inactive: 1.33 | inactive: -1.11 | inactive: -1.31
6 | CCN(CC)CCOc1ccc(-c2nc3cc(Cl)ccc3s2)cc1 | inactive: 2.15 | inactive: 0.782 | inactive: 3.01
7 | O=P([O-])(O)C(Cl)(Cl)P(=O)([O-])O [clodronate disodium, Abiogen] | inactive: -0.364 | inactive: 3.17 | inactive: -1.2
8 | CC1(C)CCC(c2ccc(Cl)cc2)=C(CN2CCN(c3ccc(C(=O)NS(=O)(=O)c4ccc(N[C@H](CCN5CCOCC5)CSc5ccccc5)c(S(=O)(=O)C(F)(F)F)c4)cc3)CC2)C1 [navitoclax] | inactive: 2.53 | inactive: -1.07 | inactive: -0.831
9 | C[C@@H](O)[C@H]1C(=O)N2C(C(=O)[O-])=C(SC(=S)N(C)CCO)[C@H](C)[C@H]12 | inactive: -0.281 | inactive: -0.647 | inactive: 0.378
10 | NCCCCN(Cc1nc2ccccc2[nH]1)[C@H]1CCCc2cccnc21 | inactive: -1.38 | inactive: 0.157 | inactive: -0.0607
11 | O=C(c1cc(-c2ccccc2)c(=O)n2c1-c1cc(Cl)ccc1CC2)N1CC[C@H](O)C1 | inactive: 1.95 | inactive: 0.864 | inactive: -0.798
12 | CC(=O)NC[C@H]1CN(c2cc(F)c(N3CCS(=O)(=O)CC3)c(F)c2)C(=O)O1 | inactive: -1.45 | inactive: -0.616 | inactive: 1.27
13 | Cc1ncccc1C(C#N)N1CCN(C(=O)CNC(c2ccccc2)c2ccccc2)CC1 (stereo unspecified) | inactive: -1.2 | inactive: 2.13 | inactive: 0.852
14 | CCOC(=O)COc1cc(C)c(CCN[C@@H](C)[C@H](O)c2ccc(O)cc2)cc1C | inactive: -0.819 | inactive: 1.87 | inactive: -1.12
15 | CON [Hydroxylamine, O-methyl-] | inactive: -0.24 | – | inactive: -1.27
16 | CON [Methoxyamine HCl] | – | inactive: -0.622 | –
17 | CN(C)CC(=O)N1Cc2ccccc2CC2(CCCN2C)C1 (stereo unspecified) | active: 6.42 | – | inactive: 1.17
18 | CC(=O)N[C@H]1CSSC(C)(C)[C@@H](C(N)=O)NC(=O)[C@@H](CC(=O)O)NC(=O)CNC(=O)[C@H](CCCNC(=N)N)N(C)C1=O | inactive: 2.74 | inactive: -0.352 | inactive: 1.52
19 | Cc1cnc(CSc2nc3ccccc3[nH]2)c(C)c1OCC1COC(C)(C)OC1 [analog of E-3710] | active: 8.5 | inactive: 1.27 | inactive: 2.2
20 | COc1ccccc1CN[C@@H]1CCCN[C@@H]1c1ccccc1 | inactive: -0.857 | inactive: -1.5 | inactive: -1.59
21 | COc1cccc2c1CCC(=O)N2CCCN1CCN(c2cccc(Cl)c2)CC1 | inactive: -0.567 | inactive: 0.865 | inactive: 2.43
22 | Cc1cc(Nc2ccc(S(F)(F)(F)(F)F)cc2)n2nc(C(C)(F)F)nc2n1 | inactive: 4.9 | inactive: -0.293 | inactive: 4.43
23 | COc1cc([C@@H]2c3cc4c(cc3C(O[C@@H]3O[C@@H]5CO[C@H](C)O[C@H]5[C@@H](O)[C@H]3O)C3COC(=O)C32)OCO4)cc(OC)c1O (stereo partly specified) [etoposide] | inactive: -3.26 | inactive: -1.87 | inactive: -2.32
24 | CC(C)NC[C@H](O)COc1ccc(O)cc1 [prenalterol] | inactive: -0.593 | inactive: -1.11 | inactive: -1.88
25 | C[C@H](Sc1nc(N)cc(Cl)n1)c1cc2ccoc2cn1 | inactive: 0.385 | inactive: 0.81 | inactive: -1.48
26 | O=[Si]([O-])[O-] [copper, antifungal, Conve] | inactive: 0.285 | – | inactive: 1.21
27 | O=[Si]([O-])[O-] [copper, antifungal] | – | inactive: -0.196 | –
28 | CCS(=O)(=O)Nc1cccc(C(N)C(=O)N[C@@H]2C(=O)N3C(C(=O)O)=C(OC)CS[C@H]23)c1 (stereo partly specified) | inactive: -0.86 | inactive: -0.0216 | inactive: -0.823

Taken from above:
In TEAD-luciferase reporter activity (compound concentration: 2 uM), O=C(O)COc1cccc2c1CC[C@@](O)(COC(=O)N(c1ccccc1)c1ccccc1)C2 reads inactive: 0.278
In TEAD-luciferase reporter activity (compound concentration: 10 uM), Cc1ncccc1C(C#N)N1CCN(C(=O)CNC(c2ccccc2)c2ccccc2)CC1 (stereo unspecified) reads inactive: 0.852
